Test results as given in article PMC8113518, “JRAB/MICAL-L2 undergoes liquid–liquid phase separation to form tubular recycling endosomes” (Communications Biology, 2021).
No constants are given. Whether binding was seen depends on the method and setting. In cells and extracts the contact can be indirect. Binding calls can cover weak binding; strength is not graded here.

Protein sequences, listed by entry. Tags and fused reporters are not part of them. Lines headed by an entry give the natural chain unless they say otherwise; changes in a name come on top.
UniProt P55258: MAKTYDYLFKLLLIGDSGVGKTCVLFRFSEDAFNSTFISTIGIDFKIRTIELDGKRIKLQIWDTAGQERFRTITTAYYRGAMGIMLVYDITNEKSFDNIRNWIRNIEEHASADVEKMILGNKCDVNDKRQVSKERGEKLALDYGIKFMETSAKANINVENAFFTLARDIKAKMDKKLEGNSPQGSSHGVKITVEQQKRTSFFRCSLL
UniProt Q3TN34: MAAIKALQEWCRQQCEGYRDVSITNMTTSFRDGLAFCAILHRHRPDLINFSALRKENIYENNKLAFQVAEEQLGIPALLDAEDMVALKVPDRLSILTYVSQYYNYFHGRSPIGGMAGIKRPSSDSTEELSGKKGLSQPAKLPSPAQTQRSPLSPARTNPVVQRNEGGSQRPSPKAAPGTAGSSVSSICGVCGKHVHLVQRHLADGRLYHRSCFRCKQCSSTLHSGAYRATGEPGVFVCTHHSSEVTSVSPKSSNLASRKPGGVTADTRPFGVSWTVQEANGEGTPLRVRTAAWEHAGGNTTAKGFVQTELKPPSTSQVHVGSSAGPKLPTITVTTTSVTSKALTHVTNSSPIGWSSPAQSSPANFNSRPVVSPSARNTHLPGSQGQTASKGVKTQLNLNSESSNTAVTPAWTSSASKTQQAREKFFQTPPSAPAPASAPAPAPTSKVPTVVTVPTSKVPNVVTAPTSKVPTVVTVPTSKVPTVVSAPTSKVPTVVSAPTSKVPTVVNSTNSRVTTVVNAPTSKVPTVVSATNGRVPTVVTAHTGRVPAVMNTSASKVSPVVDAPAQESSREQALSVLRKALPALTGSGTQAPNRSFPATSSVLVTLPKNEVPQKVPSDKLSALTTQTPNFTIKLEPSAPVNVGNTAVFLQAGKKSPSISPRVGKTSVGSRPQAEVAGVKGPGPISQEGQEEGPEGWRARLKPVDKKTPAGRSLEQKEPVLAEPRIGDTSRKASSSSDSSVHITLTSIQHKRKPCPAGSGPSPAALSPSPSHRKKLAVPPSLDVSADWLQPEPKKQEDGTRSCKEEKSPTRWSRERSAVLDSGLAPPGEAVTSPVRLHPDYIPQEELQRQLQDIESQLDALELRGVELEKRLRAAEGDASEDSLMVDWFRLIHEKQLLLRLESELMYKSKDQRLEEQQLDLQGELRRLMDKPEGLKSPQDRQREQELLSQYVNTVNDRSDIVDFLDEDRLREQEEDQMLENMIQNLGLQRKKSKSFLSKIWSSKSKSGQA

Biological target: HA-Rab8A dominant-active (DA) mutant (Q67L) (mouse) (UniProt P55258)
Experiment: co-IP; HEK293 lysates; anti-HA antibody (12CA5) on Protein G beads; buffer A, 90 min, 4 °C; western blot

In the case of GFP-JRABΔLIM (from UniProt Q3TN34), the binding is reported as “binds”.
